Among the data in PubChem BioAssay AID1508600 (Functional Genomics Laboratory (NCATS/FGL), 2020) are z-score values, retold here.

Among all 53,000 sequences or so, about 3,700 (7%) were called active.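 The calls were made as follows: active = gene knockdowns whose robust z-score for IL-1 alpha signal is at least 2 or at most -2, so actives lie on both sides; inactive = the rest.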 Some of the results follow.

The nature of the assay: Components of the Cytosolic LPS Sensing Pathway: Gene Identification via Genome-wide siRNA Screen.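 Also: robust z of the log signal after scaling to non-targeting control siRNA wells of the plate.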 The following applies: RAW264.7 macrophages, IL-1a HTRF, actives lie on both sides, screened at 100 nM (by protocol), cells primed 5 h with Pam3CSK4 first. The method in brief:
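Cells (RAW264.7, 1×10^4 per well) were transfected with siRNA at 100 nM and cultured 48h at 37 degrees C. Pam3CSK4 was added for 5 hours; LipidA transfection followed for 24 hour. IL-1a was then measured by HTRF.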
On to GGUGUGGCUGUUCUGAUGATT against Olfr771, for which the z-score was inactive: 0.322.
The value for GGUGUUCAUGAGUGCUAUATT against Atg10 was inactive: -0.172; that for GGACAGACGGUCUUCUAUATT against Znrd1 was inactive: -0.322; that for GGAAUGACGUGGUGUAUCATT against Ccdc93 was inactive: 0.199.
As to GGGAGAACCUGGCAUUCCUTT against Col23a1, the z-score was inactive: 0.422.
CCACUAAAAUUGACAAUGATT against Plxna1: the z-score was inactive: -1.66.
Then GCUGCACUGACAUAGGAGUTT against Btnl2, with inactive: -0.16; and GGAAACUUACAAACUGCCGTT against Bhlhe40, with inactive: 1.25; and CAUAAUCUGCACUACAAGCTT against Olfr309, with inactive: -0.964.
Regarding GGAAUCUGUGUAUAAUCUUTT against Dst, the z-score is inactive: 1.59.
The value for GGAGGUUUUCCGAAGUAUUTT against Pnpt1 was inactive: 1.2; that for GCGCGUCAUCUUCUGACUUTT against Mmgt2 was inactive: 1.45; that for GGAUUUAGAUCACUUGGAGTT against Tmem68 was inactive: -0.811.
The value for GGAUAUCCUUUCAAUAGAATT against Mcf2 was inactive: -0.225.
The value for GGUAUUUACCAUUAGCAGGTT against Tmem229b was inactive: 0.76; that for GGCUGUAGUCAUAAGCACUTT against Ppp1r11 was inactive: 0.316; that for GGAGAAAUCCGUCUGACCATT against Pcdhb12 was inactive: 0.137.
GGUGUACAGCUGUGACCUGTT against Chn1: the z-score is inactive: -0.387.
Then CGACUCAACUUCUCCCAUGTT against Pklr, with inactive: -1.93; and CCCAACCUCAAUGAAACUATT against Arfip2, with inactive: -0.369.
On to GGAAAUUGAUAAAGACAGATT against Fam204a, for which the z-score was inactive: -0.165.
As for GCUGCAUGAAGGUGCUAAATT against Pcmt1, the z-score was inactive: 1.
Then GGAUACACAAACCAAAAGUTT against Ccdc90b, with inactive: 0.265; and GGAAUUGCUGAGGCACUUCTT against Nfkbia, with inactive: -0.0809.
Consider GGAACAAUCACUCUUUGGCTT against Olfr123, for which the z-score was inactive: 0.151.
Consider GGCCACUAUAACUGAUCCGTT against Tlcd4, for which the z-score was inactive: 0.461.
Then GGCUAUGAUGAUUAUAAUGTT against Hnrnph1, with inactive: 0.724; and GGUGGUUUUGCUUUCUGUCTT against Tmem229a, with inactive: 0.522.
With GGUGUGCUAUACAUUAAGATT against Zgrf1, the z-score is inactive: 0.848.
Then CCAGAUUCCUCUUGGCCGATT against Spryd7, with inactive: 0.36; and CCUACGAGUUGUUAAGGACTT against Pdzd7, with inactive: -0.78.
With GCAAUCAUUGAAUCCACUCTT against Spag9, the z-score was active: 2.16.
As to GCGGCAUAAGUCCAAGCACTT against Cdk12, the z-score was inactive: -0.765.
Then GCAGGCAAGGUAUACUUGATT against Cbfb, with inactive: 0.138.
Take CCGGAAUAUCCACUAUAAUTT against Otud5: the z-score is inactive: 1.16.
GGACUUUACAGACACUUUUTT against Kdm1b: the z-score was inactive: -1.57.
As to GGAUUUCCUUGGUUCUUUUTT against Mylip, the z-score is inactive: 0.145.
With GCUAAGCGGAAUGCACUCGTT against Cxcl5, the z-score was active: -2.23.
On to CCGGGUACAGUCUUUUUGGTT against Zfp764, for which the z-score is inactive: 0.778.
Then GGCCCUAAUGCAUGUGUACTT against Gp9, with inactive: -0.0585; and GGAAUUAUAAAAGACCACGTT against Kctd12b, with active: 2.39; and GGAAUGGUUAGAGUUCUUUTT against Ercc2, with inactive: 0.285.
For the sequence CCCAUGCUAUCAAUCAUUUTT against Olfr308, the z-score is active: 2.51.
The value for GGGAAGCACAAGGUUUAGUTT against Brca1 was inactive: 0.531; that for GCGCUUACCGAACAACUGATT against Tmprss13 was inactive: -0.497.
Then GGGCAUCAUUAAAAGGAAATT against Rnf215, with inactive: 0.0844; and GGAAACACUGAAAAAGAAUTT against Casp2, with inactive: 0.111.
Then GGAAGAUUGCAUUUUGAGATT against Akap3, with inactive: -1.13.
Consider GGAGAGUACAGACACUGAGTT against Masp2, for which the z-score is inactive: -0.22.
The value for GGAUGGAUGUUUGCAUAAATT against Msx2 was active: 5.06.
Regarding CCACCGUUUCGUACAUAAATT against Gcat, the z-score is inactive: -0.168.
Then CCUACUUGUUUUGGGCUGGTT against Olfr1384, with inactive: 0.558; and GGAAAUCAGUUUUCCUGGATT against Olfr649, with inactive: 0.177.
For the sequence GGCCUCUUUUGGUAUUCCATT against Zfp42, the z-score was inactive: 0.946.
In the case of CCUUGGAUGCCUUUUACUGTT against Olfr1428, the z-score was inactive: 0.0584.
Regarding GCCGAGACAAUGGAAAUAATT against Phtf1, the z-score is inactive: 1.44.
The value for “GCUGAUCUAAGGCUCAAAATT against F830005K03Rik” was inactive: 0.804.
The value for GGUAAGACCUCACUUGGUCTT against Lrrc29 was inactive: -0.591.
In the case of GGCCUUUCAUGAAAGCUCATT against Ublcp1, the z-score was active: -3.07.
Then GGGCUCAUGGGAAUUUCUUTT against Vill, with inactive: -0.466; and GGCUUGAUUUCAACCUUGUTT against Atic, with inactive: -0.504; and CUUAAAGGAAUCCUGGUGGTT against Fam169b, with inactive: 0.0229.
Then GGUUUAUAGGGAAAGAUUUTT against Pde7b, with inactive: 0.0706; and GCGGUUCUAAGGAUACCGATT against Txndc17, with active: 2.52; and GGUCUUGAUUAUAAGCCCATT against Pde4dip, with inactive: -0.471.
Then CCAUUUUUGCUCAAUUUGCTT against Eif1ax, with inactive: -0.943.
With CCCGUUCAUAUACUUCUUUTT against Gpr183, the z-score is inactive: -0.23.
Take GGUACCUGAGUCCAUCUCATT against Sntb1: the z-score was inactive: -0.219.
GGAAAACAUGGAGAAGAAATT against Lars: the z-score was inactive: 0.0824.
Regarding GGUGUCUGGCAAGUACAAATT against Zg16, the z-score was inactive: 1.53.
On to GCAGCAUCCAACUUCCGCUTT against Ffar2, for which the z-score was active: 3.35.
The value for GGUACUAAAGUCAUGUUUGTT against Art2b was inactive: -0.193; that for GCAACGAGUCUACGUCAUCTT against Pex14 was inactive: 1.38.
Then GGCUGUCUCCCUAGUGAAATT against Shroom3, with inactive: -0.786; and GGGCUACAUGAAAAUUCUGTT against Aicda, with inactive: -0.146; and GCGAGUCCUGCCUAUCGAUTT against Pnmt, with inactive: -0.166.
The value for GCGAGUACUUACUCUUCGUTT against Rpl3 was inactive: -0.355; that for GGGAGUGAUUCAACAUUACTT against Galk1 was inactive: 0.306.
Consider GGGUUCUUUCUGAGAGAAATT against Tnfrsf1a, for which the z-score is inactive: -0.43.
The value for GCCCAUAACAAAACAUCUATT against Cma1 was inactive: 0.924; that for CGGUUGAUGGAAAAAUACATT against Ppef2 was active: 2.43; that for GCUGUAUGAUUGCCGAAAUTT against Dagla was inactive: 1.32.
Then GCUAAAGAACGUGCCAAUGTT against Tra2b, with inactive: 0.898; and GGAAUUGGUUUCAUUCAUCTT against Impdh1, with inactive: 1.03; and GGAGAAACUCUUCAGGCUUTT against Tceal8, with active: -2.19.
For GACACCACAGUCAAAUCUGTT against Agr2, the z-score was active: -2.26.
The value for GCUGUGGAAUAAAACUAUUTT against Rsl24d1 was inactive: 0.897; that for CGGGAAAUAAUUUUUGGUUTT against Snx4 was inactive: 0.756.
Then CCAAUUGAUGUCAACAAGUTT against Atp7b, with inactive: 0.94; and GGAACAGAUGAAACCAUUATT against Psmc1, with inactive: -1.78.
Then GGUGGAUGUUCGCAUGAUUTT against Ip6k1, with inactive: -1.2; and GGUGCAAAGGAUAACUCGGTT against Tfpt, with inactive: 1.14; and CCGGCACUGCUUUUCUACUTT against Ltb4r2, with inactive: -0.0313.
Consider GGAAUACUGCAGUGGCAUCTT against Olfr850, for which the z-score was inactive: 0.453.
As to CGAAAAAGGGCUUUUAACUTT against Ndufs1, the z-score was inactive: 0.757.
With GGACUGUGACAUAUUCUUUTT against Zfp54, the z-score was active: 2.74.
Then GUUCCCUACAAGUUCUUCCTT against Phox2a, with inactive: 1.54.
Then GCCUUAAUGUUUCUGUGAGTT against Pag1, with inactive: -0.036; and GGACAUUUUACAGACUCCUTT against Idi2, with inactive: -0.73.
The value for GGUGUUCUGGGAAAUUAAATT against Cdca7 was inactive: -1.41; that for GGUAAACUAGACACGAAGCTT against Fgf23 was inactive: -0.211; that for GCUAGAUGAACGAGCGAACTT against Slc25a1 was inactive: 0.551.
Take CCUUAGGUACUCUAAGGAATT against D1Pas1: the z-score was inactive: -0.109.
Then GCUGAAAUAUGUGAGAGCATT against Sdcbp, with inactive: 0.016; and GCACUUCAAUCCAGUGUCUTT against Pdgfd, with inactive: -1.27.
The value for GGUGUUUGCAUUGUACAGGTT against Zfp598 was inactive: -0.161; that for GGCUAAGAACCCACAGGAGTT against Emc10 was inactive: 0.283.
